Results: PMC4751363

Chains of the proteins cited; added tags and fusions are not shown. Lines headed by an entry give the natural chain unless they say otherwise; changes in a name come on top.
UniProt Q9Z0F8: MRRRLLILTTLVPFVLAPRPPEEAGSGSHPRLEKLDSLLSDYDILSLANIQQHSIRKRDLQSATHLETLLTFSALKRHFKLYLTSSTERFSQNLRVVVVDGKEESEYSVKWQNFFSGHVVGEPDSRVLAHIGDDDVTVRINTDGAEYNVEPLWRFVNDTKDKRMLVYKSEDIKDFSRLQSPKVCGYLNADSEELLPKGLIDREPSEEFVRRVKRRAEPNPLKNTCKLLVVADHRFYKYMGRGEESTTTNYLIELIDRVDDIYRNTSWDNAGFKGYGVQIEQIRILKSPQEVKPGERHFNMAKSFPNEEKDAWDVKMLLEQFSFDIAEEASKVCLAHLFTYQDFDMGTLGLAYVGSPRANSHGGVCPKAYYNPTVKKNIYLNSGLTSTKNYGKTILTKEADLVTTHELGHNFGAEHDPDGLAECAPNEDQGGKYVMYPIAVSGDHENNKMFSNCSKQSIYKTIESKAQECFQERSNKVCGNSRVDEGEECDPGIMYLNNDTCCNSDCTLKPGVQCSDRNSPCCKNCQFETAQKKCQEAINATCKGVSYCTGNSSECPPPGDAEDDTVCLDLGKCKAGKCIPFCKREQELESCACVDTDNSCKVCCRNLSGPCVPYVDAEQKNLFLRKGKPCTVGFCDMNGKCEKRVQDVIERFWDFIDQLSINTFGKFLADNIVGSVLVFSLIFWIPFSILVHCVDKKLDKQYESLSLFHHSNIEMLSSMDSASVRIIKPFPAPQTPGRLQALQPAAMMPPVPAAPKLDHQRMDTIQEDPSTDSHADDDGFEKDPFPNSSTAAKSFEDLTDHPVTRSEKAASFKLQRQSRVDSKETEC

Molecular target: T1, FLAG-tagged mouse Tspan14 (mouse) (UniProt Q8QZY6)
T1 sequence: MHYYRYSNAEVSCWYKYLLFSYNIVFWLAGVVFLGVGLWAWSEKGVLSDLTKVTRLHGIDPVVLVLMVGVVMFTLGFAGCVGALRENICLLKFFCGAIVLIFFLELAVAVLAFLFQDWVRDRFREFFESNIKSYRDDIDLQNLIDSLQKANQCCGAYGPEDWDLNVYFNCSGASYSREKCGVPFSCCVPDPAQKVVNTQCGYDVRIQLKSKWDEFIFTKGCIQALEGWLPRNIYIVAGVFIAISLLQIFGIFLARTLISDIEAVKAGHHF
Assay: co-IP; HEK-293T co-transfected with FLAG-tagged mouse TspanC8s and HA-tagged mouse ADAM10/ADAM17 constructs or pDisplay human ADAM10 truncations; 1% digitonin lysis; anti-FLAG immunoprecipitation; anti-HA blot

Substance: C-terminal HA-tagged mouse ADAM17 (from UniProt Q9Z0F8) (enzyme)
- binding: no binding

Results are given in words; binding and its absence hold for the method and conditions named. Binding seen in cells or lysates may run through a third protein. Sequences can lack the tags named with a protein.
